{
  "source": "patent US9365868B2",
  "about": "“Fermentation process for producing isopropanol using a recombinant microorganism” (LANZATECH NEW ZEALAND LIMITED, priority 2011, dated 2016)",
  "experiment_in_all_cases": "Addition of acetone to growing cultures (conversion to isopropanol)",
  "key": {"[1]": {"test_system": "Acetobacterium woodii DSM1030", "assay_type": "cell-based", "details": "PETC (pH 8.2); acetone 10.81 g/l directly after addition"}, "[2]": {"test_system": "Clostridium aceticum DSM1496", "assay_type": "cell-based", "details": "PETC (pH 7.4); acetone 10.07 g/l directly after addition"}, "[3]": {"test_system": "C. autoethanogenum DSM23693", "assay_type": "cell-based, Clostridium autoethanogenum"}, "[4]": {"test_system": "C. carboxidivorans DSM15243", "assay_type": "cell-based, Clostridium carboxidivorans", "details": "PETC (pH 5.9); acetone 10.43 g/l directly after addition"}, "C. ljungdahlii DSM13528": {"test_system": "C. ljungdahlii DSM13528", "assay_type": "cell-based, Clostridium ljungdahlii", "details": "PETC (pH 5.9); acetone 10.23 g/l directly after addition"}, "[5]": {"test_system": "C. ragsdalei ATCC BAA-622", "assay_type": "cell-based, Clostridium ragsdalei", "details": "PETC (pH 5.9); acetone 11.25 g/l directly after addition"}, "[6]": {"test_system": "C. beijerinckii NRRL-B593", "assay_type": "cell-based, Clostridium beijerinckii", "details": "RCM; acetone 9.96 g/l directly after addition"}, "[7]": {"test_system": "C. acetobutylicum ATCC824", "assay_type": "cell-based, Clostridium acetobutylicum", "details": "RCM; acetone 10.80 g/l directly after addition"}, "[8]": {"details": "PETC (pH 5.9), acetone 9.25 g/l added"}},
  "data": [
    {"smiles": "CC(C)=O", "note": "[acetone]", "values": [
      {"measurement": "Acetone [g/l] End of growth", "setting": "[1]", "value": 10.83, "unit": "g/L"},
      {"measurement": "Isopropanol [g/l] End of growth", "setting": "[1]", "value": 0, "unit": "g/L"},
      {"measurement": "Acetone [g/l] End of growth", "setting": "[2]", "value": 10.09, "unit": "g/L"},
      {"measurement": "Isopropanol [g/l] End of growth", "setting": "[2]", "value": 0, "unit": "g/L"},
      {"measurement": "Acetone [g/l] End of growth", "setting": "[3]; [8]", "value": 1.13, "unit": "g/L"},
      {"measurement": "Isopropanol [g/l] End of growth", "setting": "[3]; [8]", "value": 8.03, "unit": "g/L"},
      {"measurement": "Acetone [g/l] left at end of growth", "setting": "[3]; acetone 1.66 g/l added", "value": 0.22, "unit": "g/L"},
      {"measurement": "Isopropanol [g/l] left at end of growth", "setting": "[3]; acetone 1.66 g/l added", "value": 1.48, "unit": "g/L"},
      {"measurement": "Acetone [g/l] left at end of growth", "setting": "[3]; acetone 26.13 g/l added", "value": 17.82, "unit": "g/L"},
      {"measurement": "Isopropanol [g/l] left at end of growth", "setting": "[3]; acetone 26.13 g/l added", "value": 8.39, "unit": "g/L"},
      {"measurement": "Acetone [g/l] left at end of growth", "setting": "[3]; acetone 50.01 g/l added", "value": 43.30, "unit": "g/L"},
      {"measurement": "Isopropanol [g/l] left at end of growth", "setting": "[3]; acetone 50.01 g/l added", "value": 6.95, "unit": "g/L"},
      {"measurement": "Acetone [g/l] End of growth", "setting": "[4]", "value": 10.34, "unit": "g/L"},
      {"measurement": "Isopropanol [g/l] End of growth", "setting": "[4]", "value": 0, "unit": "g/L"},
      {"measurement": "Acetone [g/l] End of growth", "setting": "C. ljungdahlii DSM13528", "value": 3.73, "unit": "g/L"},
      {"measurement": "Isopropanol [g/l] End of growth", "setting": "C. ljungdahlii DSM13528", "value": 6.54, "unit": "g/L"},
      {"measurement": "Acetone [g/l] End of growth", "setting": "[5]", "value": 9.94, "unit": "g/L"},
      {"measurement": "Isopropanol [g/l] End of growth", "setting": "[5]", "value": 1.34, "unit": "g/L"},
      {"measurement": "Acetone [g/l] End of growth", "setting": "[6]", "value": 7.65, "unit": "g/L"},
      {"measurement": "Isopropanol [g/l] End of growth", "setting": "[6]", "value": 2.54, "unit": "g/L"},
      {"measurement": "Acetone [g/l] End of growth", "setting": "[7]", "value": 10.91, "unit": "g/L"},
      {"measurement": "Isopropanol [g/l] End of growth", "setting": "[7]", "value": 0, "unit": "g/L"}
    ]}
  ]
}
